According to US10758511B2, “Stable analogs of CYP450 lipid metabolites and inhibitors of soluble epoxide hydrolase” (Massachusetts Eye and Ear Infirmary, priority 2015, dated 2020):
At least one compound was matched to its structure with a doubt left.

How the values were obtained:
Assay type in all cases: in vivo, mouse
C57BL/6 mice = test: Laser-induced CNV model (flat-mount, SD-OCT, fluorescein angiography); conditions: for CNV size with co-administration of the sEH inhibitor, compared with administration alone / severity of vascular leakage in CNV lesions with co-administration of the sEH inhibitor, compared with administration alone: 50 μg/kg/day i.p. plus sEH inhibitor 1 mg/kg/day in drinking water; for CNV size with co-administration of the sEH inhibitor, compared with administration alone / severity of vascular leakage in CNV lesions with co-administration of the sEH inhibitor, compared with administration alone / CNV size in choroidal flat mounts compared to control vehicle / CNV size in cross-sectional SD-OCT compared to control vehicle / vascular leakage in CNV lesions (fluorescein angiography) compared to control vehicle: 7 d after CNV induction; for CNV size in choroidal flat mounts compared to control vehicle / CNV size in cross-sectional SD-OCT compared to control vehicle / vascular leakage in CNV lesions (fluorescein angiography) compared to control vehicle: 50 μg/kg/day i.p. once a day
From the text: J Med Chem 54(12):4109-4118).

CD18 = test: Flow cytometric analysis of CD18 on PBLs; conditions: 50 μg/kg/day i.p., 3 days after CNV induction
CD11b = test: Flow cytometric analysis of CD11b on PBLs; conditions: 50 μg/kg/day i.p., 3 days after CNV induction
ICAM-1 = test: Real-time PCR of ICAM-1 mRNA in laser-captured CNV lesions; conditions: 50 μg/kg/day i.p., 7 days post CNV induction
E-selectin = test: Real-time PCR of E-selectin mRNA in laser-captured CNV lesions; conditions: 50 μg/kg/day i.p., 7 days post CNV induction
Procedure: Immediately after enucleation, mouse eyes were placed in optimum cutting temperature (OCT) compound and swiftly frozen. Under RNase-free conditions, eyes were cryosectioned (10 μm thickness per section) and mounted on polyethylene naphthalate glass slides (Leica). After dehydrating with washes of 50, 75, and 100% ethanol, the slides were stained with isolectin B4 at a dilution of 1:50 in 1 mM CaCl2. Laser-capture microdissection (Leica LMD 7000 system) was used to isolate chorioretinal vessels in CNV lesions, which were then placed in RNA-stabilizing buffer (RNeasy Micro Kit; Qiagen). […] Real-time PCR was conducted on a StepOne real-time PCR System (Applied Biosystems) with mouse TaqMan expression assays for the following genes (Applied Biosystems): E-selectin (Mm00441278_m1), kam-1 (Mm00516023_m1), and β-actin (Mm00607939_s1). All data were normalized to β-actin cDNA.

| Structure (SMILES) | CNV size with co-administration of the sEH inhibitor, compared with administration alone (C57BL/6 mice) | severity of vascular leakage in CNV lesions with co-administration of the sEH inhibitor, compared with administration alone (C57BL/6 mice) | CNV size in choroidal flat mounts compared to control vehicle (C57BL/6 mice; C57BL/6 mice) | CNV size in cross-sectional SD-OCT compared to control vehicle (C57BL/6 mice; C57BL/6 mice) | vascular leakage in CNV lesions (fluorescein angiography) compared to control vehicle (C57BL/6 mice; C57BL/6 mice) | surface expression level of CD18 on PBLs compared to PBS (CD18) | surface expression level of CD11b on PBLs compared to PBS (CD11b) | mRNA level of ICAM-1 in CNV lesions compared to PBS injected controls (ICAM-1) | mRNA level of E-selectin in CNV lesions compared to PBS injected controls (E-selectin) | effect on the inhibitory effect of CYP-derived ω-3 fatty acids on CNV (C57BL/6 mice; sEH inhibitor 1 mg/kg/day with 17,18-EEQ or 19,20-EDP 50 μg/kg/day, C57BL/6 mice) |
| --- | --- | --- | --- | --- | --- | --- | --- | --- | --- | --- |
| CCC1OC1C/C=C\C/C=C\C/C=C\C/C=C\CCCC(=O)O (centres unmarked) [17,18-EEQ, 17,18-epoxyeicosatetraenoic acid] | further attenuated | decreased | significantly attenuated | significantly attenuated | significantly reduced | significantly lower | not | significantly reduced | significantly reduced | – |
| CCC1OC1C/C=C\C/C=C\C/C=C\C/C=C\C/C=C\CCC(=O)O (centres unmarked) [19,20-EDP] | further attenuated | decreased | significantly attenuated | significantly attenuated | significantly reduced | not | significantly lower | – | – | – |
| CCC(=O)N1CCC(NC(=O)Nc2ccc(OC(F)(F)F)cc2)CC1 [TPPU] | – | – | – | – | – | – | – | – | – | enhances |
